Source: patent publication US10577399B2, “Modified lantibiotics and methods of making and using the modified lantibiotics” (priority 2016, dated 2020)
Not every detail of the peptide structures is certain; ends, links or a residue may be inferred.

Columns and labels:
M. luteus ATCC 10240 [1] = format: cell-based, Micrococcus luteus; details: for M. luteus ATCC 10240 MIC / M. luteus ATCC 10240 MLC: Table 11
Method: (§1) Minimum Inhibitory Concentrations (MICs) were determined according to previously published protocol^31. A stock solution of the antibiotics tested was first suspended in 50% acetonitrile (ACN) at a concentration 640 μg/mL. This stock was subsequently diluted 2-fold until a final concentration 0.156 μg/mL was reached. Subsequently, 10 μl of each dilution was placed into a well on a 96 well microtiter plate. M. luteus ATCC 10240, S. pneumoniae, and B. subtilis PY79 were grown overnight in THyex at 37° C. Cultures were diluted in the morning to 0.1 OD600 and allowed to grow to 0.6 OD600. This culture was diluted a 100-fold in fresh THyex media and then 400 μl of this culture was added to 10 mL of fresh THyex. The suspension contains approximately 10^5 colony forming units (CFUs). The bacterial suspension (190 μL) was added to each well containing 10 μL of antibiotic suspension or solvent blank. […] Following the 15 minute pretreatment, 190 μL was added to each well as described above. The MIC is described as the […] concentration of antibiotic that prevented visible growth after 24 hours.
FIG. 11 illustrates the bioactivity of various core peptide mutants of mutacin 1130. The activity of the core mutant peptides is expressed as a ratio of the area of the zone of inhibition of each mutant strain to the area of the zone of inhibition of the wild-type strain against indicator strain of Micrococcus luteus. […] The deferred antagonism assay is an overlay assay of the indicator strain onto plates containing heat killed colonies of the mutacin producer strain after growing overnight. Core peptide mutants having inhibitory activity were isolated and the purified products were further evaluated by a standard minimum inhibitory concentration (MIC) assay.

S. aureus ATCC 25923 = experiment: MIC/MLC assay against S. aureus; format: cell-based, Staphylococcus aureus; details: Table 11
S. pneumoniae ATCC 27336 [2] = experiment: Kill kinetics against S. pneumoniae; format: cell-based, Streptococcus pneumoniae; details: at 125 ng/mL
C. accolens ATCC 49725 = experiment: MIC/MLC assay against C. accolens ATCC 49725; format: cell-based; details: THyex broth with 1% Tween 80
C. accolens KPL 1818 = experiment: MIC/MLC assay against C. accolens KPL 1818; format: cell-based; details: THyex broth with 1% Tween 80
S. pneumoniae AI17 = experiment: MIC against clinical S. pneumoniae isolate AI17; format: cell-based, Streptococcus pneumoniae; details: 50% blood added
Method: as §1
(§2) Selective activity and stability of analogs: Several core peptide mutants are provided that have improved activity against our ATCC strain of S. pneumoniae. […]

S. pneumoniae AI16 = experiment: MIC against clinical S. pneumoniae isolate AI16; format: cell-based, Streptococcus pneumoniae; details: 50% blood added
Method: as §1, §2

S. pneumoniae AI14 = experiment: MIC against clinical S. pneumoniae isolate AI14; format: cell-based, Streptococcus pneumoniae; details: 50% blood added
Method: as §1, §2

S. pneumoniae ATCC 27336 [3] = format: cell-based, Streptococcus pneumoniae; details: Table 11
Method: as §1, with “hours. […]” for “hours.”

S. pneumoniae AI11 = experiment: MIC against clinical S. pneumoniae isolate AI11; format: cell-based, Streptococcus pneumoniae; details: 50% blood added
Method: as §1, §2

[4] = Activity in the presence of 50% serum; format: cell-based
S. pneumoniae AI8 = experiment: MIC against clinical S. pneumoniae isolate AI8; format: cell-based, Streptococcus pneumoniae; details: 50% blood added
Method: as §1, §2

M. luteus ATCC 10240 [5] = experiment: Deferred antagonism (overlay) assay, zone of inhibition; format: cell-based, Micrococcus luteus; details: relative to wild-type strain
Method: The deferred antagonism assay was performed as previously described^39. S. mutans strains were grown overnight in THyex broth at 37° C. The cultures were diluted to 0.1 OD OD600 and grown to mid-logarithmic phase before diluting to 0.05 OD600. Then, 2 μl of the cultures were spotted on THyex plates in duplicates of triplicates. The wild-type S. mutans JH1140 and S. mutans ΔmutA were used as positive and negative controls for activity, respectively. The plates were incubated for 18 hours in a candle jar at 37° C. After incubation, the strains were heat killed at 65° C. for 90 minutes. Fresh M. luteus grown overnight at 37° C. on THyex plates were used to inoculate pre-warmed THyex broth. The culture was grown to 0.6 to 0.8 OD before diluting to 0.2 OD600. The culture was further diluted 25-fold in melted (42° C.) THyex top agar. Approximately 5 mL of the top agar solution was spread on the heat killed bioassay plates and allowed to cool for 10 minutes. The plates were then placed in the incubator (at 37° C.) for 18 hours.
Streptococcus mutans ATCC 55676 (wild-type) and the mutants that were at an OD600 of 0.2 were spotted in triplicates on a pre-warmed THyex agar plate (150×15 mm) and allowed to dry. […] Zone diameter was measured in millimeters across the plate and compared to wild-type (i.e. zone I for ATCC compared to zone I of Trp4Ala, etc.).

| Structure (SMILES) | M. luteus ATCC 10240 MIC (M. luteus ATCC 10240 [1]) | M. luteus ATCC 10240 MLC (M. luteus ATCC 10240 [1]) | activity relative to wild-type mutacin 1140 (M. luteus) (M. luteus ATCC 10240 [1]; purified variants) | S. aureus ATCC 25923 MIC (S. aureus ATCC 25923) | S. aureus ATCC 25923 MLC (S. aureus ATCC 25923) | reduction of the number of S. pneumonia (S. pneumoniae ATCC 27336 [2]) | C. accolens ATCC 49725 MIC (C. accolens ATCC 49725) | C. accolens ATCC 49725 MLC (C. accolens ATCC 49725) | C. accolens KPL 1818 MIC (C. accolens KPL 1818) | C. accolens KPL 1818 MLC (C. accolens KPL 1818) | MIC S. pneumoniae AI17 (S. pneumoniae AI17) | MIC S. pneumoniae AI16 (S. pneumoniae AI16) | MIC S. pneumoniae AI14 (S. pneumoniae AI14) | S. pneumonia ATCC 27336 MIC (S. pneumoniae ATCC 27336 [3]) | S. pneumonia ATCC 27336 MLC (S. pneumoniae ATCC 27336 [3]) | MIC S. pneumoniae AI11 (S. pneumoniae AI11) | activity in the presence of 50% serum [4] | MIC S. pneumoniae AI8 (S. pneumoniae AI8) | zone of inhibition / inhibitory activity in deferred antagonism assay (M. luteus ATCC 10240 [5]) |
| --- | --- | --- | --- | --- | --- | --- | --- | --- | --- | --- | --- | --- | --- | --- | --- | --- | --- | --- | --- |
| C=C1NC(=O)[C@H](Cc2c[nH]c3ccccc23)NC(=O)C(NC(=O)[C@H](CCCCN)NC(=O)[C@@H](N)Cc2ccccc2)CSC[C@@H](C(=O)NC2C(=O)N3CCC[C@H]3C(=O)NCC(=O)N[C@H](C(=O)N[C@@H](C)C(=O)N[C@@H](C)C(=O)NC(=CC)C(=O)NCC(=O)NC3CSC[C@@H]4NC(=O)[C@H](Cc5ccc(O)cc5)NC(=O)[C@@H](CS/C=C\NC4=O)NC(=O)[C@H](CC(N)=O)NC(=O)[C@H](Cc4ccccc4)NC3=O)CSC2C)NC(=O)[C@H](CC(C)C)NC1=O (stereo partly shown) [Mutant R13A] | 0.0625 micrograms per milliliter | 0.0625 micrograms per milliliter | two-fold more active | 16 micrograms per milliliter | 16 micrograms per milliliter | 2 logs | 0.25 micrograms per milliliter | 0.5 micrograms per milliliter | 1 micrograms per milliliter | 1 micrograms per milliliter | 0.25 micrograms per milliliter | 0.5 micrograms per milliliter | 0.25 micrograms per milliliter | 0.125 micrograms per milliliter | 0.125 micrograms per milliliter | 0.5 micrograms per milliliter | unchanged | 0.5 micrograms per milliliter | larger zone of inhibition |
| CC(C)C[C@@H]1NC(=O)[C@H](C)NC(=O)[C@H](Cc2c[nH]c3ccccc23)NC(=O)C(NC(=O)[C@H](CCCCN)NC(=O)[C@@H](N)Cc2ccccc2)CSC[C@@H](C(=O)NC2C(=O)N3CCC[C@H]3C(=O)NCC(=O)N[C@H](C(=O)N[C@@H](C)C(=O)N[C@@H](CCCNC(=N)N)C(=O)NCC(=O)NCC(=O)NC3CSC[C@@H]4NC(=O)[C@H](Cc5ccc(O)cc5)NC(=O)[C@@H](CS/C=C\NC4=O)NC(=O)[C@H](CC(N)=O)NC(=O)[C@H](Cc4ccccc4)NC3=O)CSC2C)NC1=O (stereo partly shown) [S5A:T14G] | 0.0625 micrograms per milliliter | 0.125 micrograms per milliliter | – | 32 micrograms per milliliter | 32 micrograms per milliliter | – | 0.25 micrograms per milliliter | 0.25 micrograms per milliliter | 0.5 micrograms per milliliter | 1 micrograms per milliliter | 8 micrograms per milliliter | >8 micrograms per milliliter | >8 micrograms per milliliter | 0.25 micrograms per milliliter | 0.25 micrograms per milliliter | >8 micrograms per milliliter | – | >8 micrograms per milliliter | – |
